Data reported in publication PMC6488099.
These are yes or no findings as the source states them, for the method shown. In cells and extracts the contact can be indirect. Some entries that bind do so weakly or less than the wild type. For some assays here: Where a sequence is shown, tags or fusion partners need not be part of it. Values belong to the molecule of their own block, whether it stands above or below them.

The chains behind the UniProt entries cited, without tags or fusion partners. Residues count along the entry.
UniProt P11021, residues 19-654: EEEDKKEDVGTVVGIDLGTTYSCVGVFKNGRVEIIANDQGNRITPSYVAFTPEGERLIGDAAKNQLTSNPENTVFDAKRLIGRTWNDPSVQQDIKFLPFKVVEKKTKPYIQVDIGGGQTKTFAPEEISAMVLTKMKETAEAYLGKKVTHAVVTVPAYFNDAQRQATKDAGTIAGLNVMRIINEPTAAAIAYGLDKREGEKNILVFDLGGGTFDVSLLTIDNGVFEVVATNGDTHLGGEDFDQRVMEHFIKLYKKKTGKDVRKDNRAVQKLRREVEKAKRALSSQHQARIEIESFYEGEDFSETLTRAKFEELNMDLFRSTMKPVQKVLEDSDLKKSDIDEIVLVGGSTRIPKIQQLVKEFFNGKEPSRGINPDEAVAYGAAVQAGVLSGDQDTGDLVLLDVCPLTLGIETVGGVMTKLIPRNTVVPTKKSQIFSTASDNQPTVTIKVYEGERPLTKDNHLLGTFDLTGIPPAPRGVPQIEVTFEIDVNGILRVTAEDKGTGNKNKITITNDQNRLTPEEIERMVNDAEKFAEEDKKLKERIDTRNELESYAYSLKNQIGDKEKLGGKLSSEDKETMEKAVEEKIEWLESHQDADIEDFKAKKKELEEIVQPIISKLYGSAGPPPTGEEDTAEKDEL

How the values were obtained:
[1] = biological target: T1, HA-tagged P0-S63del (UniProt P27573); assay: co-IP; induced HEK293 cells treated 3 hr with/without the proteasome inhibitor PS341 before lysis; HA-tagged P0s immunoprecipitated, Western blot for BiP (anti-KDEL antibody) or CNX
T1 sequence: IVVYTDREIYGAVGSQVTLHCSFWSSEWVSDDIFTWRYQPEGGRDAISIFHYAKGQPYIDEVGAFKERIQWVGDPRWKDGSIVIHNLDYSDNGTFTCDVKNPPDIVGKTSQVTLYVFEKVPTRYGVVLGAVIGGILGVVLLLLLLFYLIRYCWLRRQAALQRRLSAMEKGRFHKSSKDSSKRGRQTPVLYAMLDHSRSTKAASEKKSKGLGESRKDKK

[2] = biological target: binding immunoglobulin protein (BiP) (human (endogenous in HEK293)) (UniProt P11021); assay: co-IP; pulse-chase ([35S]-methionine/cysteine, chase 10 min, 120 min or 120 min with PS341) on HEK293 cells induced 17 hr; first immunoprecipitation against BiP or CNX, immunocomplexes dissociated, P0 re-immunoprecipitated with anti-HA; SDS-PAGE; said to reveal only stable interactions
[3] = biological target: T2, Calnexin (CNX) (human (endogenous in HEK293)) (UniProt P27824); assay: as above
T2 sequence: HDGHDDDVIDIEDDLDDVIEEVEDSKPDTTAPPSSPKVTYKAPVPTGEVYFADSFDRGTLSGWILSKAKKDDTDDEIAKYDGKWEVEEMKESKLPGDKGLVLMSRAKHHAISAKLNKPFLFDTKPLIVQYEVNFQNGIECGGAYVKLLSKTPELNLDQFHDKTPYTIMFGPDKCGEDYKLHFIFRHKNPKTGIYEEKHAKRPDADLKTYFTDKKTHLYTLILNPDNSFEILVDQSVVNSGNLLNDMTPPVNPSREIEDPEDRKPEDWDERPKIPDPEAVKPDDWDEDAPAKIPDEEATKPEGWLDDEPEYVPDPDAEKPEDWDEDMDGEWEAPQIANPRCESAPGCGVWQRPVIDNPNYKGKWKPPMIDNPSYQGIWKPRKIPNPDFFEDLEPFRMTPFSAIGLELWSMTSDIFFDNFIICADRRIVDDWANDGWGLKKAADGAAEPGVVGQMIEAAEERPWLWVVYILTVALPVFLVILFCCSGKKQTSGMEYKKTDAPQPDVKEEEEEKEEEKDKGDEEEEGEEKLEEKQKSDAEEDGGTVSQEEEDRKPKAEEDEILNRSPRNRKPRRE

[4] = biological target: T3, Derlin-2 (mouse (endogenous in sciatic nerve)) (UniProt Q8BNI4); assay: co-IP; P28 WT and S63del mouse sciatic nerve lysates; immunoprecipitation with anti-Derlin-1 or anti-Derlin-2 antibodies, Western blot for P0; n = 2
T3 sequence: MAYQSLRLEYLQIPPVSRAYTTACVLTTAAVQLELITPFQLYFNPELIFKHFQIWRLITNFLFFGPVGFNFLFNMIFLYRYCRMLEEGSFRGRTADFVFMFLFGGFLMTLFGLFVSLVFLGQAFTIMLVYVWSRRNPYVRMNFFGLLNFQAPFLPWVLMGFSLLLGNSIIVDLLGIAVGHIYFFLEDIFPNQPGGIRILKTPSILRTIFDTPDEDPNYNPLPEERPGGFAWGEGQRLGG

binding [1]: binds
Molecule: binding immunoglobulin protein (BiP) (from UniProt P11021 19-654)

binding [4]: binds
B3: myelin protein zero (P0), wild type, in WT mouse sciatic nerve (protein, UniProt P27573 30-248)
chain: IVVYTDREIYGAVGSQVTLHCSFWSSEWVSDDISFTWRYQPEGGRDAISIFHYAKGQPYIDEVGAFKERIQWVGDPRWKDGSIVIHNLDYSDNGTFTCDVKNPPDIVGKTSQVTLYVFEKVPTRYGVVLGAVIGGILGVVLLLLLLFYLIRYCWLRRQAALQRRLSAMEKGRFHKSSKDSSKRGRQTPVLYAMLDHSRSTKAASEKKSKGLGESRKDKK

Continued, molecule first:

B1: Calnexin (CNX) (protein, UniProt P27824 21-592)
chain: HDGHDDDVIDIEDDLDDVIEEVEDSKPDTTAPPSSPKVTYKAPVPTGEVYFADSFDRGTLSGWILSKAKKDDTDDEIAKYDGKWEVEEMKESKLPGDKGLVLMSRAKHHAISAKLNKPFLFDTKPLIVQYEVNFQNGIECGGAYVKLLSKTPELNLDQFHDKTPYTIMFGPDKCGEDYKLHFIFRHKNPKTGIYEEKHAKRPDADLKTYFTDKKTHLYTLILNPDNSFEILVDQSVVNSGNLLNDMTPPVNPSREIEDPEDRKPEDWDERPKIPDPEAVKPDDWDEDAPAKIPDEEATKPEGWLDDEPEYVPDPDAEKPEDWDEDMDGEWEAPQIANPRCESAPGCGVWQRPVIDNPNYKGKWKPPMIDNPSYQGIWKPRKIPNPDFFEDLEPFRMTPFSAIGLELWSMTSDIFFDNFIICADRRIVDDWANDGWGLKKAADGAAEPGVVGQMIEAAEERPWLWVVYILTVALPVFLVILFCCSGKKQTSGMEYKKTDAPQPDVKEEEEEKEEEKDKGDEEEEGEEKLEEKQKSDAEEDGGTVSQEEEDRKPKAEEDEILNRSPRNRKPRRE
binding [1]: binds

B2: HA-tagged P0-S63del (protein, UniProt P27573 30-248)
chain: IVVYTDREIYGAVGSQVTLHCSFWSSEWVSDDIFTWRYQPEGGRDAISIFHYAKGQPYIDEVGAFKERIQWVGDPRWKDGSIVIHNLDYSDNGTFTCDVKNPPDIVGKTSQVTLYVFEKVPTRYGVVLGAVIGGILGVVLLLLLLFYLIRYCWLRRQAALQRRLSAMEKGRFHKSSKDSSKRGRQTPVLYAMLDHSRSTKAASEKKSKGLGESRKDKK
binding [2]: binds
binding [3]: binds
